Target: T1, S7.1R (Dj-S7.1R) (Dugesia japonica, UniProt O15969)
T1 sequence (O15969 1-478): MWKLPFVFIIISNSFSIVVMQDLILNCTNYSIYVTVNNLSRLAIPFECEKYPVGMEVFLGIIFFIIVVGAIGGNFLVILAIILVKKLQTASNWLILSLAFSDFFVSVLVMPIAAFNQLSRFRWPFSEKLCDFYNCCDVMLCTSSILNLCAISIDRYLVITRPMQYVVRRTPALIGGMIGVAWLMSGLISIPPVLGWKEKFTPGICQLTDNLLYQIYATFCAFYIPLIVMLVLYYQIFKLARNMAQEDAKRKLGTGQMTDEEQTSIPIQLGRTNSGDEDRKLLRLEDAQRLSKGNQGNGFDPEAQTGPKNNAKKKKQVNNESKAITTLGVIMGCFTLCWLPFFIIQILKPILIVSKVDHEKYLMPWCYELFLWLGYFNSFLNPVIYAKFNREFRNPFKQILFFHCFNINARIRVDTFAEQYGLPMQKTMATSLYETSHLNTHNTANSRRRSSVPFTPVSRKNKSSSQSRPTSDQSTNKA
Assay type: cell-based

CN1CCC(=C2c3ccccc3C=Cc3ccccc32)CC1 [cyproheptadine]
IC50: 4.3 ± 0.6 µM

— paper PMC5196488 (International Journal for Parasitology: Drugs and Drug …, 2016)
